# Source: publication PMC8844804
# Chains of the proteins cited; added tags and fusions are not shown. A line that says so, or that is headed by a name, gives the form on record, which may keep a tag or linker. Residues count along the entry.
# UniProt P08637, 17-254: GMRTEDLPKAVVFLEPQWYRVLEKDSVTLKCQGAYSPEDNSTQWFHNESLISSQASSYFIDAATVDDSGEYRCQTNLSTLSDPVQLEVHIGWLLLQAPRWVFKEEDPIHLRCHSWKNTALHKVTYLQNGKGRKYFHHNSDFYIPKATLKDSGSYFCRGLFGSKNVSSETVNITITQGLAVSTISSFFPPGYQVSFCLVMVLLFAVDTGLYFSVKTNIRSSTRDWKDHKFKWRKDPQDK
# UniProt Q9NZQ7, 19-290: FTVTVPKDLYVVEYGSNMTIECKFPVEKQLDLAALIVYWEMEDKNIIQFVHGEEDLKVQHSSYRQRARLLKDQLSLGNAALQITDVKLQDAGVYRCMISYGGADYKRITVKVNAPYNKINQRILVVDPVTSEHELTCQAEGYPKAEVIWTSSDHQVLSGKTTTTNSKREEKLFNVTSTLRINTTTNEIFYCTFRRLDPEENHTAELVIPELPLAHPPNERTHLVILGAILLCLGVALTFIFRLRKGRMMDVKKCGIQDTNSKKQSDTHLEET
# CD16 on murine NK cells (mouse (nude mouse spleen)), one chain, as listed by the source: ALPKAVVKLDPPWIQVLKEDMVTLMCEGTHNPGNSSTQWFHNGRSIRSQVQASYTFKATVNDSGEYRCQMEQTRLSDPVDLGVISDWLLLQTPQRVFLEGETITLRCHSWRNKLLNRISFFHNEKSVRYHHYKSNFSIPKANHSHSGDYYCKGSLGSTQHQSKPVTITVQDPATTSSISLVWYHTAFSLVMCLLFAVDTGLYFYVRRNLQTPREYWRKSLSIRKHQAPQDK
# The exact form of at least one protein or probe is not confirmed. Results from cells or extracts need not show a direct contact. For some of these results: The comparison behind a weaker result is the experiment's own reference, which may not be listed here. For some of these results: At least one verdict rests on a figure or table, not on a statement of the authors.
# Legend:
# Assay in all cases: cell binding, confocal fluorescence
# [1] = target: CD16 on human NK cells (human) (UniProt P08637); settings: 200 nM aptamer, 5' phosphate, Cells with 200 nM Evagreen-labeled aptamer, 37 C, 30 min, PBS wash, incubation buffer and pH not stated, protein on the cell surface, label: Evagreen (intercalated dye), folded or branched DNA
# [2] = target: PD-L1 on HeLa cells (human) (UniProt Q9NZQ7); settings: 200 nM aptamer, 5' phosphate, Cells with 200 nM Evagreen-labeled aptamer, 37 C, 30 min, PBS wash, incubation buffer and pH not stated, protein on the cell surface, label: Evagreen (intercalated dye), folded or branched DNA
# [3] = target: PD-L1 on SMMC-7721 cells (human) (UniProt Q9NZQ7); settings: 200 nM aptamer, 5' phosphate, Cells with 200 nM Evagreen-labeled aptamer, 37 C, 30 min, PBS wash, incubation buffer and pH not stated, protein on the cell surface, label: Evagreen (intercalated dye), folded or branched DNA
# [4] = test system: CD16 on murine NK cells (mouse (nude mouse spleen)); settings: 200 nM aptamer, weak signal; 5' phosphate; 5' and 3' ends ligated by T4 DNA ligase (closed circle); Cells with 200 nM Evagreen-labeled aptamer, 37 C, 30 min; PBS wash; incubation buffer and pH not stated; protein on the cell surface; label: Evagreen (intercalated dye); folded or branched DNA
# [5] = ends ligated by T4 DNA ligase (closed circle)
# [6] = reduced by anti-PD-L1 antibody, 5' and 3' ends ligated by T4 DNA ligase (closed circle)
sequence,measurement,setting,value
GACCTGCCCACTGCGGGGGTCTATACGTGAGGAAGAAGTGGGCAGGTCCAGACGGGCTTTTTTTTTTTTTTTTTTTTTTTTTTTTTTTTTGCCCGTCTG [CD16-apt],binding result,[1]; [5],binds
GACCTGCCCACTTTTTTTTTTTTTTTTTTTTTTTTTAGTGGGCAGGTCCAGACGGGCCACATCAACTCATTGATAGACAATGCGTCCACTGCCCGTCTG [PD-L1-apt],binding result,[2]; [5],binds
same,binding result,[3]; [5],binds
GACCTGCCCACTGCGGGGGTCTATACGTGAGGAAGAAGTGGGCAGGTCCAGACGGGCCACATCAACTCATTGATAGACAATGCGTCCACTGCCCGTCTG [CP-bi-apt],binding result,"[1]; reduced by anti-CD16 antibody, 5' and 3' ends ligated by T4 DNA ligase (closed circle)",binds
same,binding result,[4],binds more weakly
same,binding result,[2]; [6],binds
same,binding result,[3]; [6],binds
